The target in the experiment is XLG2CTΔG4 (Arabidopsis thaliana). The experiment in a line: co-IP; Arabidopsis protoplasts (Col-0 or rgs1-2) transfected, with or without 1 μM flg22 for 5 min, with or without co-expressed RGS1 variants; extraction buffer 50 mM HEPES pH 7.5, 150 mM KCl, 10 mM EDTA, 0.5% Triton X-100, 1 mM DTT; anti-FLAG M2 agarose, eluted with 3×FLAG peptide; anti-HA and anti-FLAG immunoblots. (A western blot detects proteins with antibodies after separation by electrophoresis.)

Results are given in words; binding and its absence hold for the method and conditions named. Binding seen in cells or lysates may run through a third protein. Binding calls can cover weak binding; strength is not graded here. Tags and fused reporters may be left off the sequences shown.

B1: AGB1-HA (protein, UniProt P49177 1-377)
chain: MSVSELKERHAVATETVNNLRDQLRQRRLQLLDTDVARYSAAQGRTRVSFGATDLVCCRTLQGHTGKVYSLDWTPERNRIVSASQDGRLIVWNALTSQKTHAIKLPCAWVMTCAFSPNGQSVACGGLDSVCSIFSLSSTADKDGTVPVSRMLTGHRGYVSCCQYVPNEDAHLITSSGDQTCILWDVTTGLKTSVFGGEFQSGHTADVLSVSISGSNPNWFISGSCDSTARLWDTRAASRAVRTFHGHEGDVNTVKFFPDGYRFGTGSDDGTCRLYDIRTGHQLQVYQPHGDGENGPVTSIAFSVSGRLLFAGYASNNTCYVWDTLLGEVVLDLGLQQDSHRNRISCLGLSADGSALCTGSWDSNLKIWAFGGHRRVI
For the molecule B1, the binding entry is “binds”.

The values above are taken from publication PMC5951851.
